Experimental data taken from the supplement of paper PMC3334620.
Whole data set: some 33,000 sequences, median “E-score (-0.5 to 0.5)” near -0.0014, cut for the highest 2% near 0.25. This is one part of the list.

Molecular target: T1, Cad1 (UniProt P24813)
T1 sequence: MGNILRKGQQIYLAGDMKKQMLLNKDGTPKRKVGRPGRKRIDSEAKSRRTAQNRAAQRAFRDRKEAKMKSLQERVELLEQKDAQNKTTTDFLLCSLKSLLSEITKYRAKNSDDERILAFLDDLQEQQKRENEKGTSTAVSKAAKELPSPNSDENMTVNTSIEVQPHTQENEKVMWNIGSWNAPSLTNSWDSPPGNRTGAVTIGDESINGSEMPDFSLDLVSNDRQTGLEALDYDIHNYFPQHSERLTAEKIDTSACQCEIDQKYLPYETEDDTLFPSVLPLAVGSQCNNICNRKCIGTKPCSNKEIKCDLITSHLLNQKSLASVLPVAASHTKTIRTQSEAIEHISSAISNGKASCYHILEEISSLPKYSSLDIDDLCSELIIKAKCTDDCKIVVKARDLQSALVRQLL
Experiment: PBM E-score (8-mer binding enrichment) (E-score (-0.5 to 0.5)); higher = stronger / more preferred TF binding
Details: protein concentration: 100 nM; construct: GST-full length
Outline: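 Yeast transcription factors, full-length or as DNA-binding domains, were expressed with a GST tag using PURExpress in vitro transcription/translation. At about 100-200 nM they were applied to universal all-10-mer Agilent arrays, double-stranded by primer extension on fresh or once-stripped slides. Fluorescent anti-GST detected bound protein, and masliner normalised the scans. E-scores for ungapped eight-base words, pooled with reverse complements, came from the Universal PBM Analysis Suite.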

Row | Sequence | PBM E-score
1 | CCTCACCC | -0.258
2 | GCTCTCAC | -0.199
3 | GCTACCGA | 0.0341
4 | CGCCTGCC | -0.109
5 | AAGTCCGC | 0.0704
6 | CTCCGCTA | -0.0531
7 | ACAGAACG | -0.172
8 | AGGTCCGG | 0.0244
9 | CCCCTGTC | -0.385
10 | CCGTTTTC | 0.0314
11 | ATAATATG | 0.165
12 | AGGCCTAA | 0.213
13 | AACTCCCA | -0.132
14 | ACACCTTG | -0.0562
15 | CACGAAAA | 0.161
16 | GATCCCTA | -0.178
17 | GTCGGTGA | -0.13
18 | ACCTTGTA | -0.0686
19 | AAGCTGCC | 0.0151
20 | AATCCTCA | -0.0804
21 | CAAAACTA | 0.143
22 | GACGCACC | 0.0198
23 | CGCTATCA | 0.114
24 | GGATCGAA | 0.045
25 | AAATAGCG | 0.155

Quoted at random: three records from the list, in no set order.
Row | Sequence | PBM E-score
23 | CGCTATCA | 0.114
18 | ACCTTGTA | -0.0686
21 | CAAAACTA | 0.143

Additional records follow:

Row | Sequence | PBM E-score
26 | CAACCGTA | -0.195
27 | ACAAAACA | 0.0397
28 | CCGGACGC | -0.00894
29 | AGTGGTGA | 0.0973
30 | AGCCATAG | -0.123
31 | AGTTGCAG | -0.0261
32 | GTTAGTAA | 0.422
33 | AAGACTTG | -0.072
34 | ATGTAGTG | 0.0537
35 | CTCACAGA | 0.0605
36 | GTTATAAA | 0.184
37 | ACTTGATA | 0.148
38 | CTGCGCCC | -0.178
39 | CCTTTACC | -0.273
40 | CGATTGCG | 0.0341
41 | AAAGCGCA | -0.0636
42 | CTAAAATA | 0.0866
43 | TGGGCAAA | -0.136
44 | CGACTCCG | -0.15
45 | AAATAATC | 0.198
46 | ACGCGTTC | 0.213
47 | CCACGAAA | -0.0499
48 | CCCTCCCG | -0.226
49 | GAGCCATC | -0.148
50 | ACTCGGCC | 0.0273

Looked up above.
ACGCGTTC | PBM E-score: 0.213
CTAAAATA | PBM E-score: 0.0866
CGACTCCG | PBM E-score: -0.15
AAATAATC | PBM E-score: 0.198

Reformatted with each value named: part of the list above.
CCTCACCC
  PBM E-score = -0.258
GCTCTCAC
  PBM E-score = -0.199

Next records.

Row | Sequence | PBM E-score
51 | CATGCCAA | 0.0289
52 | ATGAAAGA | 0.0683
53 | AACTCCCG | 0.207
54 | TTACTCAA | 0.0484
55 | ATGCATAC | 0.0894
56 | CTTCCCCC | -0.435
57 | CAGTCGGA | -0.00739
58 | AGATCTAC | -0.0216
59 | ATAGATGC | -0.112
60 | GCGGGCGA | 0.0601
61 | AAGTTTTG | 0.114
62 | CGAAACGA | 0.0421
63 | GACCCGTA | -0.122
64 | CTGAGTGC | -0.18
65 | CTTGGTTA | 0.142
66 | CTACTAAA | 0.0417
67 | CCGGGCCA | -0.211
68 | ATAAATAC | 0.252
69 | GTAAAGCA | 0.0819
70 | AAGTAATG | 0.0383
71 | AAGCGATA | 0.103
72 | AATGCTAG | -0.133
73 | AGTTCGCC | -0.0488
74 | ATGTGGCA | -0.0532
75 | CGGACGGC | 0.0427

Row | Sequence | PBM E-score
76 | CAACTCTA | -0.143
77 | CGGAGATC | -0.095
78 | CGCTACAA | 0.0119
79 | GTCAATAA | -0.0291
80 | TATGATGA | 0.129
81 | ACCTTATG | 0.042
82 | ACGCCGTC | 0.048
83 | AAGAACTG | -0.00034
84 | ACTAATGC | 0.275
85 | GGCGTCGA | 0.191
86 | ATACGCAC | 0.129
87 | ATCGTCCA | -0.101
88 | AGCCTGAT | 0.0339
89 | CTCAGACA | 0.171
90 | AATCATTG | 0.103
91 | TGTGGGAA | -0.0527
92 | CCGACCTC | -0.0414
93 | AAAATGGG | -0.157
94 | CACATTAC | 0.226
95 | AGCTCGGC | 0.0761
96 | AGCCACTA | -0.0815
97 | CGGTCATC | -0.0838
98 | GCTACATA | -0.00397
99 | CCACGACC | -0.0775
100 | AGCTACTC | -0.142

Row | Sequence | PBM E-score
101 | GAGAAGGA | -0.0712
102 | CACTATAG | 0.0879
103 | ACGTGCGG | 0.0511
104 | CTCTTCTA | -0.275
105 | ATATCCTA | 0.0397
106 | GAATCTCA | -0.169
107 | CTCAGATC | 0.0284
108 | GAAGGTAA | 0.0658
109 | GGATTTAC | 0.176
110 | CCCCACGG | -0.201
111 | TACACCAA | 0.11
112 | CCACAGGA | -0.184
113 | AAGAGCCC | -0.152
114 | CCAAAACG | 0.0484
115 | ATGTCGGC | -0.145
116 | TACCAAGA | 0.107
117 | CCCCAGCA | -0.117
118 | GCAGTTGA | 0.177
119 | AACTGCCC | -0.131
120 | ACAGTTTC | 0.162
121 | TCGCAGAA | -0.192
122 | AGGCCACT | 0.0486
123 | AATAGTCT | -0.0386
124 | ATTCCCTA | 0.0554
125 | AAGCGCCA | -0.112

Row | Sequence | PBM E-score
126 | CCTTTTCA | -0.0603
127 | CTGGCGTC | -0.223
128 | CACCCGAC | -0.0906
129 | ACTTCAAT | 0.0775
130 | ATTGTTGC | 0.122
131 | AGTCCAAA | -0.0797
132 | CAGGCTCA | -0.0756
133 | GGTGATCA | -0.00238
134 | GGTTATGA | -0.00032
135 | AAGCTCCC | -0.192
136 | CGTACACC | -0.149
137 | GCCCCGAC | -0.175
138 | ACGGAGTA | -0.0145
139 | AGACATTG | -0.0268
140 | TACTGAAA | 0.235
141 | GGCTAAGA | -0.169
142 | AACCAGTT | 0.27
143 | AGCGCCGG | -0.0389
144 | AGCCTCGG | -0.0902
145 | ACGCGCGT | 0.217
146 | AAAGGGCT | -0.162
147 | TATTATAA | 0.185
148 | AGATGTCA | 0.0664
149 | ACGTACAC | 0.0387
150 | GTGATCAA | 0.15

Row | Sequence | PBM E-score
151 | AGTGCGCG | -0.0357
152 | CCGCACGA | 0.0304
153 | ATAGCACG | -0.093
154 | CTAATGAG | -0.0812
155 | ATGTTACC | 0.00145
156 | AAAACGTT | 0.0386
157 | ACCGGATA | -0.00264
158 | CAATAGTC | -0.131
159 | CCCATGAC | -0.065
160 | AAGGTATT | 0.0376
161 | AAGCGGTG | -0.222
162 | GTGCGGGA | -0.0389
163 | ACGCGCCT | 0.0859
164 | CAAATAAA | 0.207
165 | GGCAGGCA | -0.186
166 | GTGGACTA | 0.144
167 | CCTCAAGC | -0.204
168 | CGGTAACA | 0.213
169 | CCTAGATA | -0.0467
170 | GCGAGCCC | -0.0806
171 | AATAGTCG | 0.167
172 | GCCCGTGA | -0.15
